The test addresses WNV E protein of the inactivated WNV preparation (West Nile virus). The experiment in a line: Western blot or immunoprecipitation. For orientation: In western blotting, separated proteins are transferred to a membrane and probed.

Results are given in words; binding and its absence hold for the method and conditions named. A result given as binding can be weak or reduced; the word gives no strength.

B1: CR4361 (antibody, V domains shown)
VH: EVQLVQSGAEVKKPGESLKISCKASGFSFSTYWIGWVRQMPGKGLEWMGIIYPADSDTRYSPSFQGQVTISADKSISTAYLQWSSLKASDTAMYYCARLRGPYYDFWNGYRETHDAFNVWGQGTMVTVSS
VL: DVVMTQSPDSLAVSLGERATINCKSSQNILDNSDNKNFLAWYQQKPGQPPKLLIYWASARESGVPDRFSGSGSGTDFTLTISSLQAEDVALYYCQQYYNTPITFGQGTRLEIKR
Turning to B1, the binding entry is “binds”.

B2: CR4353 (antibody, V domains shown)
VH: QVQLVESGGGVVQPGRSLRLSCAASGFTFSNYAMHWVRQAPGKGLEWVAVISYDGGNKYYADSVKGRFTMSRDNSKNTLYLQMNSLRAEDTAVYYCARDFWSGYSMVDSYYYYMDVWGQGTTVTVSS
VL: ETTLTQSPGTLSLSPGERATLSCRASQSVSNTFLAWYQQKPGQAPRLLIYGASSRATGIPDRFSGSGSGTDFTLTISRLEPEDFAAYYCQQYGSSLTFGPGTKVDIKR
On to B2, for which the binding result is “binds”.
